Source: paper PMC2860243
These are yes or no findings as the source states them, for the method shown. In cells and extracts the contact can be indirect. A yes stands for co-enrichment or nearness to the bait. Other partners may have been found. For some of these results: Where a sequence is shown, tags or fusion partners need not be part of it.

Protein sequences, listed by entry. Tags and fused reporters are not part of them.
UniProt P20263: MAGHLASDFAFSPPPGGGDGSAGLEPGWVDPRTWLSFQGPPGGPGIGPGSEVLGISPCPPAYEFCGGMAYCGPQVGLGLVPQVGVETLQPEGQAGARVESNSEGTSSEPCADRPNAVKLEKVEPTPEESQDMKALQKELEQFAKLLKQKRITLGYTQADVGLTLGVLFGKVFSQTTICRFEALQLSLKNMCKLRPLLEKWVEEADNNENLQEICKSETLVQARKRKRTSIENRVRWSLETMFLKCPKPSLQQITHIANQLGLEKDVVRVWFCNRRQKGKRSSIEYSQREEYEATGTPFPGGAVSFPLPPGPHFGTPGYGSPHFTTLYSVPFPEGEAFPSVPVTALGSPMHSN
UniProt Q8BX22: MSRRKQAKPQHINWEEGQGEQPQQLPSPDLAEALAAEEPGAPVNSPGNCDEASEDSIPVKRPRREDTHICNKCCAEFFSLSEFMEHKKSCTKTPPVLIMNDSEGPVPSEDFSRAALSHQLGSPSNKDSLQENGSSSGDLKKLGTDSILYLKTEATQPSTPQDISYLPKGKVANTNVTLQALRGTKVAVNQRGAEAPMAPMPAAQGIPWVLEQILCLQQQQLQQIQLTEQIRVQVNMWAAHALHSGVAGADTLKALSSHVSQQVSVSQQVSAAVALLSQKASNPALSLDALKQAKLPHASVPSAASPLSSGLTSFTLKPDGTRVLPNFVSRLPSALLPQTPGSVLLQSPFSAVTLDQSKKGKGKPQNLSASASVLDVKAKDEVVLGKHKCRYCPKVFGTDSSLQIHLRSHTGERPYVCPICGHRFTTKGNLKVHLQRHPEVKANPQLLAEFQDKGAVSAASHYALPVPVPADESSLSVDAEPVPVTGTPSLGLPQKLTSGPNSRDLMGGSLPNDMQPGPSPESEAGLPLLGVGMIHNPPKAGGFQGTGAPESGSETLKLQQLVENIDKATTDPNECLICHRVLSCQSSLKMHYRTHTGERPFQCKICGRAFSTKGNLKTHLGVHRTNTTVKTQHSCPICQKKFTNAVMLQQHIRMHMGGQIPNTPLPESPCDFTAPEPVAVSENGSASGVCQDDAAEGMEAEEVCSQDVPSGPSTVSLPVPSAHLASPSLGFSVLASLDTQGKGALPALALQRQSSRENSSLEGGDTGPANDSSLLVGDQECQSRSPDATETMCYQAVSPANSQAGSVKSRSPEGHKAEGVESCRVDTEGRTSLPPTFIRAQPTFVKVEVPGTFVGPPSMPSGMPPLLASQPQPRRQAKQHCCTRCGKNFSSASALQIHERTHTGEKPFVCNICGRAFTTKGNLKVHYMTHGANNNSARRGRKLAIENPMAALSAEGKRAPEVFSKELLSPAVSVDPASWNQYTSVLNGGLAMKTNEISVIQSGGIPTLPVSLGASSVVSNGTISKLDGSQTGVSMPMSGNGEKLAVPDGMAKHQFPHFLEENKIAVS
UniProt P48972: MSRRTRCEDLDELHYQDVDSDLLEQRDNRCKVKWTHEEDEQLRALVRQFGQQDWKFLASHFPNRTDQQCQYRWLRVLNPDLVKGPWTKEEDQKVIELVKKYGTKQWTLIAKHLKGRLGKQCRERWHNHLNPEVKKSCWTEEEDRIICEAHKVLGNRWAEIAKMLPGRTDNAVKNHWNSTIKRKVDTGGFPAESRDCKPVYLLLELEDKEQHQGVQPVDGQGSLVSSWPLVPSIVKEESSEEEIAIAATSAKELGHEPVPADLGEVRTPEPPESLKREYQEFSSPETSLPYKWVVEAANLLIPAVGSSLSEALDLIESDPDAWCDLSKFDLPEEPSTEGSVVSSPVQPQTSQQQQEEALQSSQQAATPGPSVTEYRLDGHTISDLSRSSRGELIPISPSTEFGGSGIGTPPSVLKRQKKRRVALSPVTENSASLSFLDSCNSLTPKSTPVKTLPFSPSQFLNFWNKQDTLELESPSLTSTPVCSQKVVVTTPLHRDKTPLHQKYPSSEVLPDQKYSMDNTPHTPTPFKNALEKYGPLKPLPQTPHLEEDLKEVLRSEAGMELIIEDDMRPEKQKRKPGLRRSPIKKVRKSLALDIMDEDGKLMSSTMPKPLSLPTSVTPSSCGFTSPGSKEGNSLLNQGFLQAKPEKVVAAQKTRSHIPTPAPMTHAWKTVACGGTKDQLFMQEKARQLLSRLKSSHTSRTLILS
UniProt P56546: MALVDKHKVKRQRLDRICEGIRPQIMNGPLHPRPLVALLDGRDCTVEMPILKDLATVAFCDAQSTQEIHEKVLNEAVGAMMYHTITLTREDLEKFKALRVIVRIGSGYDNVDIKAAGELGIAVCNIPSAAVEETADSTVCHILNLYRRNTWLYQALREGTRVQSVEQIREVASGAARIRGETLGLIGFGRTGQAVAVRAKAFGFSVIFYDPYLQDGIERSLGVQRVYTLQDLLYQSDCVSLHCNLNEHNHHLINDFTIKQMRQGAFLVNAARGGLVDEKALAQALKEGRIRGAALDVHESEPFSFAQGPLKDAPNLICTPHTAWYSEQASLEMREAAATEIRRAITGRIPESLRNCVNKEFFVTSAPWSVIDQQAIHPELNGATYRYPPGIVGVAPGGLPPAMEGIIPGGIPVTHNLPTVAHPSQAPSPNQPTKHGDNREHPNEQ
UniProt Q9CQJ4: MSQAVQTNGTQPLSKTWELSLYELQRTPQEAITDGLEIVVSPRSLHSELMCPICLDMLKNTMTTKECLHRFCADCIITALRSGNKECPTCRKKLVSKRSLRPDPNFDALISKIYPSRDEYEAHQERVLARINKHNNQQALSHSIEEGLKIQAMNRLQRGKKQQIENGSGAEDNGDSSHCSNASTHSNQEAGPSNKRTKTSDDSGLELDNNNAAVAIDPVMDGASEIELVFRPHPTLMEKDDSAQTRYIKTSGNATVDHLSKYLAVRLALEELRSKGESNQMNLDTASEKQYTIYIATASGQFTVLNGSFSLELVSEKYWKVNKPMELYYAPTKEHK
UniProt Q9Z0Z7: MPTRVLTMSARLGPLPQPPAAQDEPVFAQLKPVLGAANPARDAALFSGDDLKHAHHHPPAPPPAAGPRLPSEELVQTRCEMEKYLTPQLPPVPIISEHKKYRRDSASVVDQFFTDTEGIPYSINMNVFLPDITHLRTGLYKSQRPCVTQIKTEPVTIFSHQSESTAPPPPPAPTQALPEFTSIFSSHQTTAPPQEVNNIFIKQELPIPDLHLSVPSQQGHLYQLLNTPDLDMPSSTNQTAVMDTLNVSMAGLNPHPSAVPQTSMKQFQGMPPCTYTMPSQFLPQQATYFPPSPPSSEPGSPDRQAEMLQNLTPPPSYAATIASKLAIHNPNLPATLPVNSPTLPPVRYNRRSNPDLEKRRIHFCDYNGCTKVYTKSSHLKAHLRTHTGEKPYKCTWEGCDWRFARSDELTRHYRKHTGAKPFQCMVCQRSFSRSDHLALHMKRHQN
UniProt Q8C796: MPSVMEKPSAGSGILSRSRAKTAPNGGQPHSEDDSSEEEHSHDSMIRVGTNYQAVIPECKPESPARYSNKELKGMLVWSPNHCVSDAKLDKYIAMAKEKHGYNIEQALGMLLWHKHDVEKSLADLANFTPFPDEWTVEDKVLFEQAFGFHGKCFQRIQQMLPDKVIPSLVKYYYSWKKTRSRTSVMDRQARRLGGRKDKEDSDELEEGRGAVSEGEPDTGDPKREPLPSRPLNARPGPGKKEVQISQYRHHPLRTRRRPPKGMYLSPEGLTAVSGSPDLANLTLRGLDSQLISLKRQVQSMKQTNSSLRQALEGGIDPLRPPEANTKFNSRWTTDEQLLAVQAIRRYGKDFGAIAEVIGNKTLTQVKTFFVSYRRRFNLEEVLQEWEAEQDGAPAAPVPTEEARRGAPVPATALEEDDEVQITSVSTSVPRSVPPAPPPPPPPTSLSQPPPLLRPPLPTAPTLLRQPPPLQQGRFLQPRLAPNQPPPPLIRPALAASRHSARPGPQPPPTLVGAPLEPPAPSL
UniProt Q60596: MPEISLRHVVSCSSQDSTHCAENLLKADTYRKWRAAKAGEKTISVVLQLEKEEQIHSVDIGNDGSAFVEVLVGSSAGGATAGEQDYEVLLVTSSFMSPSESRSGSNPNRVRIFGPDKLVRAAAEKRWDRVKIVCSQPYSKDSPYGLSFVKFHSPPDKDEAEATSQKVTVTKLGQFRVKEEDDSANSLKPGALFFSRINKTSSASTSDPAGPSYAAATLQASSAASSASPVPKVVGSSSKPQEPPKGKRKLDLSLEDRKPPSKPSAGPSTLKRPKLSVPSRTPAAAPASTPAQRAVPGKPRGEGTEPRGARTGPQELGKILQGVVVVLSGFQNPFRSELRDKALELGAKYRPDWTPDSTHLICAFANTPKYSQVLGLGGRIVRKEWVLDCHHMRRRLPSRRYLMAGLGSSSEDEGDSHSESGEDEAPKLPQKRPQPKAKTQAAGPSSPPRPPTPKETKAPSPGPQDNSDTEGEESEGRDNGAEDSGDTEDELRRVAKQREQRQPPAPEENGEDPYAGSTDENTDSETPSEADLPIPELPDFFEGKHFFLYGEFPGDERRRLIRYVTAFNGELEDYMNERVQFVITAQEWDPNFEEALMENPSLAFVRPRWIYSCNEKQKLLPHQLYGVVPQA
UniProt P31266: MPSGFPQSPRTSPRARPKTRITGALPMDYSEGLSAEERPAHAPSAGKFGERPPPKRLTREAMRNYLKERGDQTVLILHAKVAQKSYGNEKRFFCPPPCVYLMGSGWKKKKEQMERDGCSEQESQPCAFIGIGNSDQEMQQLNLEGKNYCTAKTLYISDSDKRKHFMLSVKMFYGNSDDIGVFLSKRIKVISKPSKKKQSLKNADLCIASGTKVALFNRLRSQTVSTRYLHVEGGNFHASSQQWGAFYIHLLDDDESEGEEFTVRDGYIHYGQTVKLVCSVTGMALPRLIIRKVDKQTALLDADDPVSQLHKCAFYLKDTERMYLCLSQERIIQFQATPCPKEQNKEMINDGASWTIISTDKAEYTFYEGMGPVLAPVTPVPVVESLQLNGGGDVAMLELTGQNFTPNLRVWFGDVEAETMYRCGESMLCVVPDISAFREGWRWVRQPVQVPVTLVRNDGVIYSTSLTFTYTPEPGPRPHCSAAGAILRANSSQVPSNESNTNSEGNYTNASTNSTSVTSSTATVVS
UniProt P23475: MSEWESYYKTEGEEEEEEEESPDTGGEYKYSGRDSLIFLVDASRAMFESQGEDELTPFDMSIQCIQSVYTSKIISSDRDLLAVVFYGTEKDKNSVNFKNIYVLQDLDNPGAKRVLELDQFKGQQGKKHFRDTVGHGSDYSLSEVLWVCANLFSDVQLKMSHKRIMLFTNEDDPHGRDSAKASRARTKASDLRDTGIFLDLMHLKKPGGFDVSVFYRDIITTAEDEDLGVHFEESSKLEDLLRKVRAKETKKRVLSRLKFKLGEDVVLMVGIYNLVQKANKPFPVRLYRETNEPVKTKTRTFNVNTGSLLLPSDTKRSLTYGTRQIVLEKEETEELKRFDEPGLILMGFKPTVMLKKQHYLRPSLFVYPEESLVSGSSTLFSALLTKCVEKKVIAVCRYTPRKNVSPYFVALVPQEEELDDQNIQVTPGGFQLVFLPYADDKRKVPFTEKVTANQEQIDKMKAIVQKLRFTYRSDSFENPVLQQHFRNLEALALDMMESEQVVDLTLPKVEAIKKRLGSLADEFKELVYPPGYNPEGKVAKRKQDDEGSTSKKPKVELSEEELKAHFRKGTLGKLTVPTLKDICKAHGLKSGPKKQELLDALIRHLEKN
UniProt P97376: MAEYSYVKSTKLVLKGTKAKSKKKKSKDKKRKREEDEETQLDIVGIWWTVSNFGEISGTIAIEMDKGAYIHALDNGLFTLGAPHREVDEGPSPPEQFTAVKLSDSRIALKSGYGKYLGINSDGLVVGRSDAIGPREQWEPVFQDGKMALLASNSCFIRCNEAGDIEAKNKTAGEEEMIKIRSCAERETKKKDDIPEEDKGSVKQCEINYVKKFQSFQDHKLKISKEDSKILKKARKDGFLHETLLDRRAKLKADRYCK
UniProt Q9CQE6: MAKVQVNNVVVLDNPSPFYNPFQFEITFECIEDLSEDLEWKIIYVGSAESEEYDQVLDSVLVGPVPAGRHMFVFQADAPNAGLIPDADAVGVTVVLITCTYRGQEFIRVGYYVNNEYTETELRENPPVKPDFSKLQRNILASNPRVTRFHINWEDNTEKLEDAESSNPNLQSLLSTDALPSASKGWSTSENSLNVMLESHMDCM
UniProt Q61103: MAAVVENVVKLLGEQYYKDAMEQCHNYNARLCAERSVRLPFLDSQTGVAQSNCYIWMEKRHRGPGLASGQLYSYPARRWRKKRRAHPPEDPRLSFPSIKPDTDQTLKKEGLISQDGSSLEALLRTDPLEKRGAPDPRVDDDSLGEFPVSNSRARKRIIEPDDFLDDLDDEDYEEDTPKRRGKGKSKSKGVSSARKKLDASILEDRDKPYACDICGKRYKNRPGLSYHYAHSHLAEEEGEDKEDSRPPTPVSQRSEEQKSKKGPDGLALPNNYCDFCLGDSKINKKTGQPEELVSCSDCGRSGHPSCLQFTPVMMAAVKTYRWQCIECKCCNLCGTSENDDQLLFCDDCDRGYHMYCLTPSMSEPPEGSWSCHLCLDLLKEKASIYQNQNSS

Key:
[1] = target: Oct4 (Pou5f1) (mouse (endogenous in 46C ESCs)) (UniProt P20263); experiment: affinity purification with mass spectrometry; immunoprecipitation of endogenous Oct4 (antibody sc-8628 cross-linked to protein G Sepharose) from 1 ml 46C ESC nuclear extract, Benzonase, washes with C-100*, 4°C, boiled in SDS-loading dye; control goat IgG
[2] = target: FLAG-Oct4 (F-Oct4) (mouse) (UniProt P20263); experiment: affinity purification with mass spectrometry; FLAG-affinity purification of F-Oct4 from 1.5 ml ESC nuclear extract on anti-FLAG M2 agarose, buffer C-100 (20 mM HEPES pH 7.6, 100 mM KCl), washes with 0.02% NP-40, Benzonase, 4°C, FLAG peptide elution; three purifications; control ZHBTc4 extract
[3] = target: T1, FLAG-tagged Tcfcp2l1 (F-Tcfcp2l1) (mouse) (UniProt Q3UNW5); experiment: affinity purification with mass spectrometry; FLAG-affinity purification of F-Sall4, F-Dax1, F-Tcfcp2l1 or F-Esrrb from nuclear extract of ZHBTc4-derived ESC clones, buffer C-100, Benzonase, FLAG peptide elution; two purifications each without and with doxycycline (16 hr, Oct4 removed); hits present in both -Dox purifications
T1 sequence: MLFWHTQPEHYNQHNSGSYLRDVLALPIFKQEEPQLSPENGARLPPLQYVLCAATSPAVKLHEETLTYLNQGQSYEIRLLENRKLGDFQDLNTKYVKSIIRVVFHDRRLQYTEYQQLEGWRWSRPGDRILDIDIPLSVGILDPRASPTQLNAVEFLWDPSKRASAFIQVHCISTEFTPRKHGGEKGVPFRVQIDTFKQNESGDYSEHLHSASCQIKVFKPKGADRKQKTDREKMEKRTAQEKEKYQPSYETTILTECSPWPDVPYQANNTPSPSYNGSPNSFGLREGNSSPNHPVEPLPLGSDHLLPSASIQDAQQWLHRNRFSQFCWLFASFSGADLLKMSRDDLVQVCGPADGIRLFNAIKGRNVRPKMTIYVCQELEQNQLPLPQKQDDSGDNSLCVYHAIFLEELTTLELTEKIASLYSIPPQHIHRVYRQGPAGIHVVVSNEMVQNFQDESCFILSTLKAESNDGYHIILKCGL

[4] = target: T2, FLAG-tagged Esrrb (F-Esrrb) (mouse) (UniProt Q61539); experiment: as above
T2 sequence: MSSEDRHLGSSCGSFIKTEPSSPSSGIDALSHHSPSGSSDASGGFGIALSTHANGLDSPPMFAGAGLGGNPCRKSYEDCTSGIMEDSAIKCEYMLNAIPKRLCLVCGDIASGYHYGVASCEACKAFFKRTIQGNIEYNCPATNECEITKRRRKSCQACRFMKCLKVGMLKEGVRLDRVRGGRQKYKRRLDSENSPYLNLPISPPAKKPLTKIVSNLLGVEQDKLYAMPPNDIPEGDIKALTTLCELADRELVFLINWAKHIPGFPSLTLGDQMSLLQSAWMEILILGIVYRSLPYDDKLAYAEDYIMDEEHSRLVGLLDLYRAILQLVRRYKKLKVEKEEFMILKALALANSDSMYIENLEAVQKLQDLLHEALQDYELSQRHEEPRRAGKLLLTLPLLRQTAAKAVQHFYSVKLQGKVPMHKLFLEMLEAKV

[5] = target: T3, FLAG-tagged Dax1 (F-Dax1) (mouse) (UniProt Q61066); experiment: as above
T3 sequence: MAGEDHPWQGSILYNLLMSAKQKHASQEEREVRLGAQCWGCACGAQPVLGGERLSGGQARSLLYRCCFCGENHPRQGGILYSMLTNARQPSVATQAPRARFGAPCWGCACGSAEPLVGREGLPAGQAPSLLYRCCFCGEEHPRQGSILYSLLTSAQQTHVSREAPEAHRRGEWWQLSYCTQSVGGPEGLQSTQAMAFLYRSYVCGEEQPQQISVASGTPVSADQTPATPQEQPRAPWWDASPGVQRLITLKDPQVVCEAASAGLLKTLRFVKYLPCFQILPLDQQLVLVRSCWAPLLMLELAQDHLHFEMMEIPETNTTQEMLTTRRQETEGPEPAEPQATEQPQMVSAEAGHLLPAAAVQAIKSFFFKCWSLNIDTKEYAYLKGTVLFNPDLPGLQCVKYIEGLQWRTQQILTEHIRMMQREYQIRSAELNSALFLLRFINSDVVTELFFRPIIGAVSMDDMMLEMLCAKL

[6] = target: FLAG-tagged Sall4 (F-Sall4) (mouse) (UniProt Q8BX22); experiment: as above

Row | Substance | binding [1] | binding [2] | binding [3] | also measured
1 | Msh6 (from UniProt P54276 1-1358) | – | – | binds | –
2 | Mybl2 (from UniProt P48972 1-704) | – | – | binds | –
3 | Nrip (mouse (endogenous in mouse ESCs)) | – | – | – | binding [4]: binds
4 | Ctbp2 (from UniProt P56546 1-445) | binds | binds | – | –
5 | Usp9x (from UniProt P70398 1-2559) | – | – | – | binding [6]: binds
6 | Rpa1 (from UniProt Q8VEE4 1-623) | – | – | binds | –
7 | Prkdc (from UniProt P97313 1-4128) | – | – | binds | –
8 | Ep400 (from UniProt Q8CHI8 1-3072) | binds | binds | – | –
9 | Ring1B (Rnf2) (from UniProt Q9CQJ4 1-336) | binds | binds | – | –
10 | Klf5 (from UniProt Q9Z0Z7 1-446) | binds | binds | binds | binding [6]: binds
11 | pnkp (from UniProt Q9JLV6 1-522) | – | – | binds | –

Now from value to substance, other results behind:

Row | binding [1] | binding [2] | binding [3] | Substance | also measured
12 | binds | binds | – | Rcor2 (from UniProt Q8C796 1-523) | –
13 | binds | binds | – | Akap8 (from UniProt Q9DBR0 1-687) | –
14 | – | – | binds | Xrcc1 (from UniProt Q60596 1-631) | –
15 | binds | binds | – | Rbpj (from UniProt P31266 1-526) | –
16 | binds | binds | binds | Sall4 (from UniProt Q8BX22 1-1067) | binding [5]: binds; binding [4]: binds
17 | – | – | binds | Xrcc6 (from UniProt P23475 1-608) | –
18 | binds | binds | – | Mga (from UniProt A2AWL7 1-3003) | –
19 | binds | binds | – | Zfp462 (from UniProt B1AWL2 1-2495) | –
20 | binds | binds | – | Frg1 (from UniProt P97376 1-258) | –
21 | – | binds | – | Brg1 (Smarca4) (from UniProt Q3TKT4 1-1613) | –
22 | – | – | binds | Asf1a (from UniProt Q9CQE6 1-204) | –
23 | – | binds | – | Rif1 (from UniProt Q6PR54 1-2419) | –
24 | binds | binds | – | Requiem (from UniProt Q61103 1-391) | –
25 | – | – | binds | Xrcc5 (from UniProt P27641 1-732) | –
26 | – | binds | – | Baf155 (Smarcc1) (from UniProt P97496 1-1104) | –
